Experimental data as given in PMC8084942.
No constants are given. Whether binding was seen depends on the method and setting. Binding seen in cells or lysates may run through a third protein. Some binding calls cover weakened binding; strength is not graded here. Where a sequence is shown, tags or fusion partners need not be part of it.

Protein sequences, listed by entry. Tags and fused reporters are not part of them. Lines headed by an entry give the natural chain unless they say otherwise; changes in a name come on top. Chains listed by the source or under a name are the forms on record and can include a tag or linker.
GST-tagged HMGA1B recombinant protein (P17096-2, form named): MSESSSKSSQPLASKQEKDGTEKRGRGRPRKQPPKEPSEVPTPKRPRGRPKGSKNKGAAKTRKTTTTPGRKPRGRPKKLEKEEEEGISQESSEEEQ

Legend:
[1] = biological target: T1, V5-tagged POU1F1 (POU class 1 homeobox 1), expressed in HEK293T cells (UniProt P28069); test: co-IP; HEK293T cells co-transfected with V5-POU1F1 and HA-HMGA1B or HA-HMGA2, harvested 48 h post-transfection; 1000 ug lysate incubated with anti-V5 or anti-HA conjugated agarose (Pierce Crosslink IP Kit); IgG as control; with or without ethidium bromide; western blot
T1 sequence: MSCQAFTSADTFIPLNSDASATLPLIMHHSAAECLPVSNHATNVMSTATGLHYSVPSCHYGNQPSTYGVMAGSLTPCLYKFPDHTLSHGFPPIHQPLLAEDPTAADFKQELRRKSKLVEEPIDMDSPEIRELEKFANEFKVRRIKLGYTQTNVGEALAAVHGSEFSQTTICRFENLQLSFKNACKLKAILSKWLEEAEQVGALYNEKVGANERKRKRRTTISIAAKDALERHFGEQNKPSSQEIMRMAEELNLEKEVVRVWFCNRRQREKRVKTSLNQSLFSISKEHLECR

[2] = biological target: GST-tagged HMGA1B recombinant protein (UniProt P17096); test: pull-down; GST, GST-HMGA1B or GST-HMGA2 recombinant protein conjugated to glutathione agarose (Pierce GST Protein Interaction Pull-Down Kit), incubated with cell lysates of POU1F1-overexpressing HEK293T or SGC7901 cells; eluate analysed by western blot; only the target purified
HA-tagged HMGA1B = HA-tagged HMGA1B (UniProt P17096); test: co-IP; HEK293T cells co-transfected with V5-POU1F1 and HA-HMGA1B or HA-HMGA2, harvested 48 h post-transfection; 1000 ug lysate incubated with anti-V5 or anti-HA conjugated agarose (Pierce Crosslink IP Kit); IgG as control; with or without ethidium bromide; western blot

## HA-tagged HMGA1B (from UniProt P17096-2 1-96)
[1]
  binding: binds

B1: V5-tagged POU1F1 (POU class 1 homeobox 1), expressed in HEK293T cells (protein, UniProt P28069 1-291)
chain: T1 sequence
[2]
  binding: binds
HA-tagged HMGA1B
  binding: binds

B2: V5-tagged POU1F1 (POU class 1 homeobox 1), expressed in SGC7901 cells (protein, UniProt P28069 1-291)
chain: T1 sequence
[2]
  binding: binds
